Source: the supplement of paper PMC8728848
Some of the results follow.

Legend:
Assay in all cases: glycan array binding signal (z-score within array); higher = stronger binding
Settings in all cases: glycan notation: IUPAC condensed, linker removed
Gal6S(b1-4)Glc6S = biological target: Gal6S(b1-4)Glc6S
Method in brief: (§1)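 From the Consortium for Functional Glycomics database, 3228 arrays were curated, keeping only those whose protein sequence was available. Binding is given as a within-array Z-score averaged across arrays sharing a protein sequence and across linkers. Negative Z-scores can be read as non-binding.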

Gal6S(b1-4)GlcNAc = biological target: Gal6S(b1-4)GlcNAc
Method in brief: as §1

Gal6S(b1-4)GlcNAc6S = biological target: Gal6S(b1-4)GlcNAc6S
Method in brief: as §1

GalNAc(a1-3)Gal = biological target: GalNAc(a1-3)Gal
Method in brief: as §1

GalNAc(a1-3)GalNAc = biological target: GalNAc(a1-3)GalNAc
Method in brief: as §1

[1] = biological target: GalNAc(a1-3)GalNAc(b1-3)Gal(a1-4)Gal(b1-4)Glc
Method in brief: as §1

[2] = biological target: GalNAc(a1-3)GalNAc(b1-3)Gal(a1-4)Gal(b1-4)GlcNAc
Method in brief: as §1

GalNAc(b1-3)Gal = biological target: GalNAc(b1-3)Gal
Method in brief: as §1

[3] = biological target: GalNAc(b1-3)Gal(a1-4)Gal(b1-4)GlcNAc
Method in brief: as §1

[4] = biological target: GalNAc(b1-3)Gal(a1-4)Gal(b1-4)GlcNAc(b1-3)Gal(b1-4)Glc
Method in brief: as §1

[5] = biological target: GalNAc(b1-3)Gal(a1-6)Gal(b1-4)Glc
Method in brief: as §1

GalNAc(b1-3)GalNAc = biological target: GalNAc(b1-3)GalNAc
Method in brief: as §1

GalNAc(b1-3)GlcNAc = biological target: GalNAc(b1-3)GlcNAc
Method in brief: as §1

GalNAc(b1-4)Gal(b1-4)Glc = biological target: GalNAc(b1-4)Gal(b1-4)Glc
Method in brief: as §1

GalNAc(b1-4)GlcNAc = biological target: GalNAc(b1-4)GlcNAc
Method in brief: as §1

[6] = biological target: GalNAc(b1-4)GlcNAc(b1-2)Man
Method in brief: as §1

[7] = biological target: GalNAc(b1-4)GlcNAc(b1-2)Man(a1-3)[GalNAc(b1-4)GlcNAc(b1-2)Man(a1-6)]Man(b1-4)GlcNAc(b1-4)GlcNAc
Method in brief: as §1

[8] = biological target: GalNAc(b1-4)GlcNAc(b1-3)GalNAc(b1-4)GlcNAc
Method in brief: as §1

GalNAc(b1-4)GlcNAc6S = biological target: GalNAc(b1-4)GlcNAc6S
Method in brief: as §1

GalNAc(b1-6)GalNAc = biological target: GalNAc(b1-6)GalNAc
Method in brief: as §1

GalNAc3S(b1-4)GlcNAc = biological target: GalNAc3S(b1-4)GlcNAc
Method in brief: as §1

GalNAc3S(b1-4)GlcNAc3S = biological target: GalNAc3S(b1-4)GlcNAc3S
Method in brief: as §1

[9] = biological target: GalNAc3S(b1-4)[Fuc(a1-3)]GlcNAc
Method in brief: as §1

GalNAc4S6S(b1-4)GlcNAc = biological target: GalNAc4S6S(b1-4)GlcNAc
Method in brief: as §1

GalNAc6S(b1-4)GlcNAc = biological target: GalNAc6S(b1-4)GlcNAc
Method in brief: as §1

Glc(a1-4)Glc = biological target: Glc(a1-4)Glc
Method in brief: as §1

[10] = biological target: Glc(a1-4)Glc(a1-4)Glc(a1-4)Glc
Method in brief: as §1

Glc(a1-6)Glc(a1-6)Glc = biological target: Glc(a1-6)Glc(a1-6)Glc
Method in brief: as §1

[11] = biological target: Glc(a1-6)Glc(a1-6)Glc(a1-6)Glc
Method in brief: as §1

Glc(b1-4)Glc = biological target: Glc(b1-4)Glc
Method in brief: as §1

Glc(b1-6)Glc = biological target: Glc(b1-6)Glc
Method in brief: as §1

GlcA(b1-3)Gal = biological target: GlcA(b1-3)Gal
Method in brief: as §1

GlcA(b1-3)GlcNAc = biological target: GlcA(b1-3)GlcNAc
Method in brief: as §1

GlcA(b1-6)Gal = biological target: GlcA(b1-6)Gal
Method in brief: as §1

[12] = biological target: GlcA3S(b1-3)Gal(b1-4)GlcNAc(b1-2)Man
Method in brief: as §1

[13] = biological target: GlcA3S(b1-3)Gal(b1-4)GlcNAc(b1-3)Gal(b1-4)Glc
Method in brief: as §1

[14] = biological target: GlcNAc(a1-3)Gal(b1-4)GlcNAc
Method in brief: as §1

[15] = biological target: GlcNAc(a1-4)Gal(b1-3)GlcNAc
Method in brief: as §1

[16] = biological target: GlcNAc(a1-4)Gal(b1-4)GalNAc
Method in brief: as §1

[17] = biological target: GlcNAc(a1-4)Gal(b1-4)GlcNAc
Method in brief: as §1

[18] = biological target: GlcNAc(a1-4)Gal(b1-4)GlcNAc(b1-3)Gal(b1-4)Glc
Method in brief: as §1

[19] = biological target: GlcNAc(a1-4)Gal(b1-4)GlcNAc(b1-3)Gal(b1-4)GlcNAc
Method in brief: as §1

[20] = biological target: GlcNAc(a1-4)Gal(b1-4)GlcNAc(b1-3)Gal(b1-4)GlcNAc(b1-3)Gal(b1-4)GlcNAc
Method in brief: as §1

[21] = biological target: GlcNAc(a1-4)Gal(b1-4)GlcNAc(b1-3)Gal(b1-4)[Fuc(a1-3)]GlcNAc(b1-3)Gal(b1-4)[Fuc(a1-3)]GlcNAc
Method in brief: as §1

[22] = biological target: GlcNAc(a1-6)Gal(b1-4)GlcNAc
Method in brief: as §1

B1: Mermaid2 (Stilbonema majum) (protein)
chain: MGSSHHHHHHSSGLVPRGSHMAASGWLRSPQGTVVKLYRRSLSWSKADEFCKDVDGRLVVDRTADMHLFLIKNVLKEKKSRVWVGLRRTAPHSRTWIWSDGTRQNEDDLNTNLWLRDEPNDAAGEEECALFMYSPWEKAWGLNDYLCRGGCRSYQFICEKGIR
Gal6S(b1-4)Glc6S
  glycan array binding signal (z-score): 0.45
Gal6S(b1-4)GlcNAc
  glycan array binding signal (z-score): -0.357
Gal6S(b1-4)GlcNAc6S
  glycan array binding signal (z-score): -0.12
GalNAc(a1-3)Gal
  glycan array binding signal (z-score): -0.361
GalNAc(a1-3)GalNAc
  glycan array binding signal (z-score): -0.71
[1]
  glycan array binding signal (z-score): -0.539
[2]
  glycan array binding signal (z-score): -0.198
GalNAc(b1-3)Gal
  glycan array binding signal (z-score): -0.009
[3]
  glycan array binding signal (z-score): -0.287
[4]
  glycan array binding signal (z-score): 0.501
[5]
  glycan array binding signal (z-score): -0.499
GalNAc(b1-3)GalNAc
  glycan array binding signal (z-score): 0.616
GalNAc(b1-3)GlcNAc
  glycan array binding signal (z-score): 0.183
GalNAc(b1-4)Gal(b1-4)Glc
  glycan array binding signal (z-score): 0.777
GalNAc(b1-4)GlcNAc
  glycan array binding signal (z-score): -0.077
[6]
  glycan array binding signal (z-score): -0.335
[7]
  glycan array binding signal (z-score): -0.174
[8]
  glycan array binding signal (z-score): 1.06
GalNAc(b1-4)GlcNAc6S
  glycan array binding signal (z-score): 4.64
GalNAc(b1-6)GalNAc
  glycan array binding signal (z-score): -0.009
GalNAc3S(b1-4)GlcNAc
  glycan array binding signal (z-score): 0.218
GalNAc3S(b1-4)GlcNAc3S
  glycan array binding signal (z-score): 0.017
[9]
  glycan array binding signal (z-score): 0.003
GalNAc4S6S(b1-4)GlcNAc
  glycan array binding signal (z-score): -0.786
GalNAc6S(b1-4)GlcNAc
  glycan array binding signal (z-score): -0.098
Glc(a1-4)Glc
  glycan array binding signal (z-score): 0.102
[10]
  glycan array binding signal (z-score): -0.065
Glc(a1-6)Glc(a1-6)Glc
  glycan array binding signal (z-score): 0.555
[11]
  glycan array binding signal (z-score): -0.783
Glc(b1-4)Glc
  glycan array binding signal (z-score): 0.418
Glc(b1-6)Glc
  glycan array binding signal (z-score): 0.148
GlcA(b1-3)Gal
  glycan array binding signal (z-score): -0.454
GlcA(b1-3)GlcNAc
  glycan array binding signal (z-score): 1.37
GlcA(b1-6)Gal
  glycan array binding signal (z-score): -0.375
[12]
  glycan array binding signal (z-score): -0.81
[13]
  glycan array binding signal (z-score): -0.533
[14]
  glycan array binding signal (z-score): 0.98
[15]
  glycan array binding signal (z-score): -0.752
[16]
  glycan array binding signal (z-score): 0.186
[17]
  glycan array binding signal (z-score): -0.506
[18]
  glycan array binding signal (z-score): -0.806
[19]
  glycan array binding signal (z-score): -0.401
[20]
  glycan array binding signal (z-score): -0.917
[21]
  glycan array binding signal (z-score): -0.315
[22]
  glycan array binding signal (z-score): -0.48
